Reference: patent publication US6617431
Results are given in words; binding and its absence hold for the method and conditions named. Some results given as binding are weak or reduced against the parent protein; the word gives no strength. Blank lines part the entries; values can stand above or below the substance they belong to.

Protein sequences, listed by entry. Tags and fused reporters are not part of them. Lines headed by an entry give the natural chain unless they say otherwise; changes in a name come on top.
UniProt P02452: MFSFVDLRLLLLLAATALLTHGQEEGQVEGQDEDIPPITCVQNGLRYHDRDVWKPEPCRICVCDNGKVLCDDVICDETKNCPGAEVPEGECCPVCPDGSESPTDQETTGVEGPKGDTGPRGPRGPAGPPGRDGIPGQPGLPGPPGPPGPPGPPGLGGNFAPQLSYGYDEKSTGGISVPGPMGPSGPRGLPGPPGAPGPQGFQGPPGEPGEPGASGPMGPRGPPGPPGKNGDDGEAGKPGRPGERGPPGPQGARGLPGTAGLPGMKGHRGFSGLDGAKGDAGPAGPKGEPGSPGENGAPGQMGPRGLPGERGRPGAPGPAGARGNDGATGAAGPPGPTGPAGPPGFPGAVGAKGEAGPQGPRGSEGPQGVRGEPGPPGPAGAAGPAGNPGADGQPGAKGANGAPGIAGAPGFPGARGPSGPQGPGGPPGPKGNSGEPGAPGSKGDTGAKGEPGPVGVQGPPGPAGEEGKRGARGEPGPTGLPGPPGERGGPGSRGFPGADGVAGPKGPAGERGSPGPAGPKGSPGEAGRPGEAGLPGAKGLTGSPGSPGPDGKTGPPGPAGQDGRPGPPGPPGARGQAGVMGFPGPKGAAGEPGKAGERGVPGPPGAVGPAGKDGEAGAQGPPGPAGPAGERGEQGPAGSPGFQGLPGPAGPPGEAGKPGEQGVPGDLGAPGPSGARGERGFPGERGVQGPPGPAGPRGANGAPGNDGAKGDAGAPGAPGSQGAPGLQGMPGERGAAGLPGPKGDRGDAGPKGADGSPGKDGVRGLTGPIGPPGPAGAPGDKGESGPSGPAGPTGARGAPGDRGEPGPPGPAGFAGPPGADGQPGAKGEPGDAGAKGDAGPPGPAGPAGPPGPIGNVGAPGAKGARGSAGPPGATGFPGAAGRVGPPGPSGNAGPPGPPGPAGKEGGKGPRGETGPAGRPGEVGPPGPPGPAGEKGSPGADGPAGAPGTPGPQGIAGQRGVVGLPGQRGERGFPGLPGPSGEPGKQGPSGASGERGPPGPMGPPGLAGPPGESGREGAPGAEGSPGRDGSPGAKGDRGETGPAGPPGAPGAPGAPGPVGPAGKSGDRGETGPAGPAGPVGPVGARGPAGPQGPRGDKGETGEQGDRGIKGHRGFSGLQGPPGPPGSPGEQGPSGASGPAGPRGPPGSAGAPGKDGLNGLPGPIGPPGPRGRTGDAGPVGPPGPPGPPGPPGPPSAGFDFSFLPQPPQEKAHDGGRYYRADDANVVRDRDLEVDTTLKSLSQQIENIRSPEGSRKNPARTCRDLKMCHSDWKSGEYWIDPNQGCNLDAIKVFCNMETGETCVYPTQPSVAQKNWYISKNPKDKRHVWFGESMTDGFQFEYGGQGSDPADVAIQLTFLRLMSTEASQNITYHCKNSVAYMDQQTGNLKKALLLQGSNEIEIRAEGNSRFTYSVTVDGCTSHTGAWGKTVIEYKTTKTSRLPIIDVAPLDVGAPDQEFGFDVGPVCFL

What was measured:
[1] = target: recombinant human α1 (I) chain from tobacco plants transformed with construct pBIOC706 (fragment BDEFG), band migrating at the level of the control α1 (I) chain, C-propeptide cleaved (human) (UniProt P02452); test: chain-to-chain association (triple coil); trypsin digestion, 6% acrylamide gel
[2] = target: recombinant human α1 (I) chain from tobacco plants transformed with construct pBIOC706 (fragment BDEFG), band migrating at the level of the control α1 (I) chain, C-propeptide cleaved (human) (UniProt P02452); test: chain-to-chain association (triple coil); electron microscopy after shade rotation
[3] = target: recombinant human α1 (I) chain from tobacco plants transformed with construct pBIOC706 (fragment BDEFG), band migrating at the level of the control α1 (I) chain, C-propeptide cleaved (human) (UniProt P02452); test: chain-to-chain association (triple coil); resistance to trypsin at 25° C., gel electrophoresis
[4] = target: recombinant human α1 (I) chain from tobacco plants transformed with construct pBIOC706 (fragment BDEFG), complete chain comprising the C-propeptide, band at approximately 140 KDa (human) (UniProt P02452); test: chain-to-chain association of the same chain; SDS-PAGE with or without DTT, immunotransfer
[5] = target: recombinant human α1 (I) chain from tobacco plants transformed with construct pBIOC707 (fragment BCDEFG), band at approximately 140 KDa comprising the N-propeptide, C-propeptide cleaved (human) (UniProt P02452); test: chain-to-chain association (triple coil); resistance to trypsin at 25° C., gel electrophoresis
[6] = target: recombinant human α1 (I) chain from tobacco plants transformed with construct pBIOC707 (fragment BCDEFG), complete chain comprising the N- and C-propeptides, band at approximately 160 KDa (human) (UniProt P02452); test: chain-to-chain association of the same chain; SDS-PAGE with or without DTT, immunotransfer

- binding [1]: binds
- binding [2]: binds
- binding [3]: binds
Substance: recombinant human α1 (I) chain from tobacco plants transformed with construct pBIOC706 (fragment BDEFG), band migrating at the level of the control α1 (I) chain, C-propeptide cleaved (from UniProt P02452 160-1192)

- binding [4]: binds
Substance: recombinant human α1 (I) chain from tobacco plants transformed with construct pBIOC706 (fragment BDEFG), complete chain comprising the C-propeptide, band at approximately 140 KDa (from UniProt P02452 160-1464)

- binding [5]: binds
Substance: recombinant human α1 (I) chain from tobacco plants transformed with construct pBIOC707 (fragment BCDEFG), band at approximately 140 KDa comprising the N-propeptide, C-propeptide cleaved (from UniProt P02452 27-1192)

- binding [6]: binds
Substance: recombinant human α1 (I) chain from tobacco plants transformed with construct pBIOC707 (fragment BCDEFG), complete chain comprising the N- and C-propeptides, band at approximately 160 KDa (from UniProt P02452 27-1464)
